PubChem BioAssay AID1508597 | Cure First, 2020

Assay: 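Survival screen with siRNA in ovarian cancer cells derived from patients, with or without rucaparib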 (primary screen)
System: human ovarian carcinoma lines grown from tumours: OCI-P5x (papillary serous) and OCI-C5x (clear cell)
Knock-down reagent: siRNA pool against human genes, 1.25 pmol siRNA per well
Timing: 72 h or 96 h, depending on the cell culture
Treatment: rucaparib 20 µM (about IC30) or vehicle, present until read-out
Rucaparib or vehicle: Rucaparib
Cell line: OCI-C5x (clear cell)
Measurement: 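Luminescent ATP-based viability assay read 72 or 96 h after transfection, depending on culture, given as normalised percent viability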
Direction: viability, normalised: higher = more viable cells remaining
Active means: 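Active when normalised viability falls below 80 percent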
Meaning of the calls: active = viability under 80%; inactive = viability 80% or more
This is an unselected part of the about 2,100 reagents, under one of the conditions tested. 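Calls flag viability under 80% in either arm, not effects specific to rucaparib; the reference for percent is not stated.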 Unmarked entries are inactive. Reagent sequences are not shown. Not stated in the record: the 100% reference.

no.	target	technical replicate	viability, normalised (%)
1	JARID2	1	40.2 (active)
2	JARID2	2	36.2 (active)
3	JARID2	3	33.1 (active)
4	HDAC9	1	45.9 (active)
5	HDAC9	2	33.7 (active)
6	HDAC9	3	59 (active)
7	RIF1	1	63.5 (active)
8	RIF1	2	64.6 (active)
9	RIF1	3	79.9 (active)
10	YJU2B	1	63.5 (active)
11	YJU2B	2	74.2 (active)
12	YJU2B	3	69.9 (active)
13	TNK2	1	92.7
14	TNK2	2	121
15	TNK2	3	102

3 entries already listed, arranged by “viability, normalised (%)”, high to low:
target	technical replicate	viability, normalised (%)
RIF1	3	79.9 (active)
RIF1	2	64.6 (active)
YJU2B	1	63.5 (active)

More entries:
no.	target	technical replicate	viability, normalised (%)
16	EIF5A2	1	54.8 (active)
17	EIF5A2	2	69.9 (active)
18	EIF5A2	3	74.2 (active)
19	PDK4	1	64.9 (active)
20	PDK4	2	81.1
21	PDK4	3	51.3 (active)
22	CKB	1	54.8 (active)
23	CKB	2	69.8 (active)
24	CKB	3	57.6 (active)
